From the supplement of paper PMC6411743 come the findings set out here.

By UniProt entry, the sequences of proteins in these tests, tags left out. Where a name states a change or a piece, a line headed by the entry shows the natural chain unless it says otherwise.
UniProt Q92499: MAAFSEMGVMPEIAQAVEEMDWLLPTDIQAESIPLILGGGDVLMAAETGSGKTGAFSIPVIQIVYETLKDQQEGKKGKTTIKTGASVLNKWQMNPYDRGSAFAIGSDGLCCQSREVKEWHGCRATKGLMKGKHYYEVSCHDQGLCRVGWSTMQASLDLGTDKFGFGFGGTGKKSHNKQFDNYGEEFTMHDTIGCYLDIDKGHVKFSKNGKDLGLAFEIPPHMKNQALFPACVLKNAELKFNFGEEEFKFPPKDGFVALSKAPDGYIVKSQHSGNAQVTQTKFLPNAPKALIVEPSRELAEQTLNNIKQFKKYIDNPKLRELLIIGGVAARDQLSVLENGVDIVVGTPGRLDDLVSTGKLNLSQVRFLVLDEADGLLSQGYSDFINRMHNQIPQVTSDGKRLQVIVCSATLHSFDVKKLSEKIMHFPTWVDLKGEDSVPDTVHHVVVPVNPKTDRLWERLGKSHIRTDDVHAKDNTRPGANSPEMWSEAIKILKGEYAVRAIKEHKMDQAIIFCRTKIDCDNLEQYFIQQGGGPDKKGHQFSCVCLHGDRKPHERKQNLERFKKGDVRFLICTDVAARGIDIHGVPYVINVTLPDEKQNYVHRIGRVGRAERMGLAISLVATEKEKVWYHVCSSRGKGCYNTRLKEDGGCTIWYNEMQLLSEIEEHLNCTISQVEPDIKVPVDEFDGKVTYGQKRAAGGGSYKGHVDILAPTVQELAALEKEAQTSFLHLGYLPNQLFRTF
UniProt Q969T7: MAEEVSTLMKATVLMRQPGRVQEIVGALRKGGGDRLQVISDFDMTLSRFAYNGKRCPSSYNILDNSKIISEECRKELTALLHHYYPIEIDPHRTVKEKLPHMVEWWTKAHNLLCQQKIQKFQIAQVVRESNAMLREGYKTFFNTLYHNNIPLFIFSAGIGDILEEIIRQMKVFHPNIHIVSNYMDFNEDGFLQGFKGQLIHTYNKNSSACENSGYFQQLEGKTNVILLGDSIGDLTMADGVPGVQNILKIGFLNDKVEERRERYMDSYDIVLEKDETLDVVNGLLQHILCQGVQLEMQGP
UniProt Q92859: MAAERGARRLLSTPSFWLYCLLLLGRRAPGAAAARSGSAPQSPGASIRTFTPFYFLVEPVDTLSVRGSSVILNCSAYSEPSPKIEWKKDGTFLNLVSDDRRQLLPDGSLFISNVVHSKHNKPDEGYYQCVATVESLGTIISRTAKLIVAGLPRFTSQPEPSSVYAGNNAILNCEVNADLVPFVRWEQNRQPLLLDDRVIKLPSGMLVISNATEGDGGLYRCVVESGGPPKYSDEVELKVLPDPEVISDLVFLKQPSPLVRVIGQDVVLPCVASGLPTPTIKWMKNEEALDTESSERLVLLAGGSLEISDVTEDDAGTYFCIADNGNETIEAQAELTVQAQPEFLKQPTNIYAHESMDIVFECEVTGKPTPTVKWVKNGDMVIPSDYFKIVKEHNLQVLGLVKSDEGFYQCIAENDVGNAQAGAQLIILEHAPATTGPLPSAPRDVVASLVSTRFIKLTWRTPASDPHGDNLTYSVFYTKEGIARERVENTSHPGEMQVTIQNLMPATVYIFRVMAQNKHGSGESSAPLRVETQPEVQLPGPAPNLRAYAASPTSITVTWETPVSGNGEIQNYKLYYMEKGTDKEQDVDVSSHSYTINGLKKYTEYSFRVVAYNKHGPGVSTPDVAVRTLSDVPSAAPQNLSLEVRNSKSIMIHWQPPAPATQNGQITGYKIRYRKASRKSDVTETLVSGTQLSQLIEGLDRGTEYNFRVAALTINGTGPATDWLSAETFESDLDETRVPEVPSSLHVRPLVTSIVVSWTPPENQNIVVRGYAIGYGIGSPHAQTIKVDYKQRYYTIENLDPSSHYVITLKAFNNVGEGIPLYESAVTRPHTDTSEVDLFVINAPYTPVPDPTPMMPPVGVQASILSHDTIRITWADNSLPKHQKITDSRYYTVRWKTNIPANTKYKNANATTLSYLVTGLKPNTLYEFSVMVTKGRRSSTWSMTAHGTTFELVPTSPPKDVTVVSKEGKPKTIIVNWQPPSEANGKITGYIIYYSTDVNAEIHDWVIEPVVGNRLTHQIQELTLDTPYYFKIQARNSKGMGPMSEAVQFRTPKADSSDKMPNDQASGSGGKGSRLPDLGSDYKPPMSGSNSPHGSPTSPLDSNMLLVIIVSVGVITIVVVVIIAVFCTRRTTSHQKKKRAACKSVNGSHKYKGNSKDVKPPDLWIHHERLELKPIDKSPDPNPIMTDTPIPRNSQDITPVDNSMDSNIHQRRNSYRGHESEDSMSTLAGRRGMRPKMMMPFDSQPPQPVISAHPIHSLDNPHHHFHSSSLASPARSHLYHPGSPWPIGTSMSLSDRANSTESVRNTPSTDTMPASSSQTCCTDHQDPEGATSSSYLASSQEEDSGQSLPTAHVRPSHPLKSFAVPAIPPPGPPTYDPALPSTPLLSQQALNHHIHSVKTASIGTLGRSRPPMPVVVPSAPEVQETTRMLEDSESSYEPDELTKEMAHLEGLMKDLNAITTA
UniProt Q92974: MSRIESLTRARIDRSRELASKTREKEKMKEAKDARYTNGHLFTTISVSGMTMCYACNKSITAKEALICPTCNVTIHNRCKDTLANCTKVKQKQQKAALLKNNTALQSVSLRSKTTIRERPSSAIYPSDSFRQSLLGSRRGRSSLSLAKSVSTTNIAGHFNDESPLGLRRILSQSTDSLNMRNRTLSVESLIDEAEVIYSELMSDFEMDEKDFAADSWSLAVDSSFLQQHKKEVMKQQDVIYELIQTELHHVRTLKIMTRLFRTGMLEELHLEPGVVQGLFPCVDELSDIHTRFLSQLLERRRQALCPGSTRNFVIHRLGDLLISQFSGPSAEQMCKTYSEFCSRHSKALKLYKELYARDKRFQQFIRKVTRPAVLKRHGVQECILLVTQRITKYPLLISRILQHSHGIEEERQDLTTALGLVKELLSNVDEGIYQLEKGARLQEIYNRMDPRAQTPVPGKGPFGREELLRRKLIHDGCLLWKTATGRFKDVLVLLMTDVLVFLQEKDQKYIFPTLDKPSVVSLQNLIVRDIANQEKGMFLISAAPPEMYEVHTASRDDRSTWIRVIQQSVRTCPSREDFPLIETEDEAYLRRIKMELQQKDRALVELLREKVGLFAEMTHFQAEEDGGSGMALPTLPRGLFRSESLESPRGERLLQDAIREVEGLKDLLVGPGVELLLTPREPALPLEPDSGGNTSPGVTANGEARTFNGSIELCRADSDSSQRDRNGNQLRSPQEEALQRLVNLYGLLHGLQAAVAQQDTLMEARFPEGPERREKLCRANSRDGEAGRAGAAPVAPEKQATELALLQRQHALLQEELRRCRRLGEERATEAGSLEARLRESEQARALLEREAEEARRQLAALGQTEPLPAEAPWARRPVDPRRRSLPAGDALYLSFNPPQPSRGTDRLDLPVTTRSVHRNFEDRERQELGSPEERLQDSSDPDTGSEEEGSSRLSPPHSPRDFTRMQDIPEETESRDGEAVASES
UniProt Q8WY22: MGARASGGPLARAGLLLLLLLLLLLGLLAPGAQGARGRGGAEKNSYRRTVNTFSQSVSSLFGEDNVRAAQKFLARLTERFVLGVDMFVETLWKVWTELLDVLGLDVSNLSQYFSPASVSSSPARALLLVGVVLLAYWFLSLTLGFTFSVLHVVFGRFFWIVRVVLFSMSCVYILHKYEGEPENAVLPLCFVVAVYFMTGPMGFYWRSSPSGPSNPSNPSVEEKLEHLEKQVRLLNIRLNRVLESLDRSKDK
UniProt Q92581: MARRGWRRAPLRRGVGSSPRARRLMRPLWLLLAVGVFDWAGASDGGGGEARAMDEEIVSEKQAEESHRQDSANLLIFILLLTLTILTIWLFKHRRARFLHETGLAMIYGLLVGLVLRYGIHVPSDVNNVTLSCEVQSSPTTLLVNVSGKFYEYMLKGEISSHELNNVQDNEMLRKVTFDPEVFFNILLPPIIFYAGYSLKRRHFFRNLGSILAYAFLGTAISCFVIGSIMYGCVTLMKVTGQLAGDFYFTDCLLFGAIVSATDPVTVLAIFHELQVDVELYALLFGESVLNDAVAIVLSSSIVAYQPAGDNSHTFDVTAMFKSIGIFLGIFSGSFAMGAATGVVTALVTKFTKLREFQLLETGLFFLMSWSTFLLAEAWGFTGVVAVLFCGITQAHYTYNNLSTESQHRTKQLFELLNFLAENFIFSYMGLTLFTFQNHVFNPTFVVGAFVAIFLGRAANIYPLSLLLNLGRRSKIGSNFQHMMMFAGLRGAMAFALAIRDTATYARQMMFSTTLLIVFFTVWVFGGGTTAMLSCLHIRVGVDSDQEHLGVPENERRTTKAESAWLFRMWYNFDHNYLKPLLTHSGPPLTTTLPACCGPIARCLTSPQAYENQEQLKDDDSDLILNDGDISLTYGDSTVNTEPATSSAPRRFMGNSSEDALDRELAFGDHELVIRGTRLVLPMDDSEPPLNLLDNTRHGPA
UniProt Q96ES7: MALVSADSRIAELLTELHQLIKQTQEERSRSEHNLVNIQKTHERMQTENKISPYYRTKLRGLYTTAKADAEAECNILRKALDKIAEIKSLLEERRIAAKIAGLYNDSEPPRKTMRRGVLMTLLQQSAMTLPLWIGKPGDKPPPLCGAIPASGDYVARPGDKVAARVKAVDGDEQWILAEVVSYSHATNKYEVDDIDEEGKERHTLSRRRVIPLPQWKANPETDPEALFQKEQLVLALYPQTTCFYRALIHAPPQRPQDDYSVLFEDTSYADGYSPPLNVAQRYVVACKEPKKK
UniProt Q92733: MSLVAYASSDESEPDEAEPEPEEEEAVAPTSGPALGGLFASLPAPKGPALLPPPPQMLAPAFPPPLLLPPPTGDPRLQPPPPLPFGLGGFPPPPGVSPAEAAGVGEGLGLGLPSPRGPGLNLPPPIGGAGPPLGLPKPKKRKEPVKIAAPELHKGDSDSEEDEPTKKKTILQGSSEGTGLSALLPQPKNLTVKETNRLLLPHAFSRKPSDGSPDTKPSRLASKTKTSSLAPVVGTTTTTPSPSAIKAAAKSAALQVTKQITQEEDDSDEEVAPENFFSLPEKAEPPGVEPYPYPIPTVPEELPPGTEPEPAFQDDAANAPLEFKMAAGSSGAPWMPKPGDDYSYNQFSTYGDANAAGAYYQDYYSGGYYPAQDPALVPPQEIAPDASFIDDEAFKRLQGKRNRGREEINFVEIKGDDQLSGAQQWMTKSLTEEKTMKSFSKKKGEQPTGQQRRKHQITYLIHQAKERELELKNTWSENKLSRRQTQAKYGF
UniProt Q8WUY8: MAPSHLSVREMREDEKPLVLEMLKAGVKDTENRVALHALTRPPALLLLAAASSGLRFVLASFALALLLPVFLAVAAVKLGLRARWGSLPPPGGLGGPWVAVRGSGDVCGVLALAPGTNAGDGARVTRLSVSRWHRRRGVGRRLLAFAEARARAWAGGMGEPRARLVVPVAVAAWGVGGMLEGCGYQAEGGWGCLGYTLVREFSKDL
UniProt Q96AE7: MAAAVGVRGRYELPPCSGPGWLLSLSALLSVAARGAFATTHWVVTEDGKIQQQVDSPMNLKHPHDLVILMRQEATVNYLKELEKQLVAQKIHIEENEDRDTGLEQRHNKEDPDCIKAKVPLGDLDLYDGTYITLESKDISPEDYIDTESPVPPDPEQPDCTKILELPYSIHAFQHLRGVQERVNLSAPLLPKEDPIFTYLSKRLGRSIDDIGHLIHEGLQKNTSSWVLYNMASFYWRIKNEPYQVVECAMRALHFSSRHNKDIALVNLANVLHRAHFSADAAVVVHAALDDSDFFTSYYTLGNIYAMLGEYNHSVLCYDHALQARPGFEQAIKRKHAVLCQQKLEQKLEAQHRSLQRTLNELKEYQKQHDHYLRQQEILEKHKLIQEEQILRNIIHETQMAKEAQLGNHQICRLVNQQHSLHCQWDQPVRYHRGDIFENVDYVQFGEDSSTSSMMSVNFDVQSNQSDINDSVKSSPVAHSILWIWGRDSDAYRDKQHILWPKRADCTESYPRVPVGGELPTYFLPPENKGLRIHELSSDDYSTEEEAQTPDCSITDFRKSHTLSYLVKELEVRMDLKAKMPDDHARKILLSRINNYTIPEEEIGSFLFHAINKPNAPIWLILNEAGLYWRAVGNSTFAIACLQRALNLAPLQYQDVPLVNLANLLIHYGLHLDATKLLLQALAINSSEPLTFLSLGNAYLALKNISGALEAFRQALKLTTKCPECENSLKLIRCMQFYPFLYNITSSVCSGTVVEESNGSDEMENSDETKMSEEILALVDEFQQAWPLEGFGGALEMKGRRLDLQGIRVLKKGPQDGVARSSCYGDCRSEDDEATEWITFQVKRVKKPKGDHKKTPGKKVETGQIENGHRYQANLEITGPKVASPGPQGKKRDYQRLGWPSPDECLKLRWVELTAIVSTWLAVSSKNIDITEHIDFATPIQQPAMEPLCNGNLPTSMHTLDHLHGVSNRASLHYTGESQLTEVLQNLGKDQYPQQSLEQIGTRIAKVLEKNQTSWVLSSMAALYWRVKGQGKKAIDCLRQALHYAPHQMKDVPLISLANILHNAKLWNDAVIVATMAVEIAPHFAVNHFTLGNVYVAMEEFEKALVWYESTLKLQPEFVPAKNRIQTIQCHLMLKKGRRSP

± gives the standard deviation of the averaged measurements. This is one part of the list.

Compound in the test: Nc1nc2c(ncn2[C@@H]2O[C@H](COP(=O)(O)OP(=O)(O)OP(=O)(O)O)[C@@H](O)[C@H]2O)c(=O)[nH]1 [guanosine triphosphate]
In words: NP40-soluble protein abundance relative to vehicle (solubility fold change) (ratio); higher = more soluble protein in presence of GTP. The procedure, abridged: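 Values are fold changes against the detergent-processed vehicle, based on vsn-normalised intensities. Jurkat crude lysate was treated at eight concentrations from 0.1 to 10 mM (10 min at room temperature, then 3 min at 37 °C), solubilised with 0.8% NP40 and benzonase, ultracentrifuged and analysed by TMT-labelled LC-MS/MS over three independent experiments.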

With DDX1 (UniProt Q92499), the NP40-soluble protein abundance came to 1.02 ± 0.024 (concentration: 0.1mM); 1.02 ± 0.066 (concentration: 0.5mM); 0.941 ± 0.027 (concentration: 1mM); 0.971 ± 0.072 (concentration: 2mM); 0.997 ± 0.059 (concentration: 4mM); 0.993 ± 0.063 (concentration: 6mM). In addition, the NP40-soluble protein abundance (concentration: 8mM) stood at 0.971 ± 0.013 and the NP40-soluble protein abundance (concentration: 10mM) is 0.961 ± 0.038.

As to UniProt Q969T7 and related entries, the NP40-soluble protein abundance runs as follows: (concentration: 0.1mM) 1.04 ± 0.015; (concentration: 0.5mM) 0.963 ± 0.031; (concentration: 1mM) 0.947 ± 0.02; (concentration: 2mM) 0.96 ± 0.025; (concentration: 4mM) 0.885 ± 0.075; (concentration: 6mM) 0.869 ± 0.025. The NP40-soluble protein abundance reads like this: (concentration: 8mM) 0.878 ± 0.023; (concentration: 10mM) 0.839 ± 0.038.

As to UniProt Q92859 and related entries, the NP40-soluble protein abundance stood at 1.02 ± 0.037 (concentration: 0.1mM); 0.905 ± 0.029 (concentration: 0.5mM); 1.01 ± 0.022 (concentration: 1mM); 0.969 ± 0.052 (concentration: 2mM); 0.981 ± 0.074 (concentration: 4mM); 0.942 ± 0.13 (concentration: 6mM). Besides, the NP40-soluble protein abundance (concentration: 8mM) amounted to 0.957 ± 0.053 and the NP40-soluble protein abundance (concentration: 10mM) came out at 0.943 ± 0.061.

On to UniProt Q92974 and related entries, for which the NP40-soluble protein abundance by setting is: (concentration: 0.1mM) 1.03 ± 0.015; (concentration: 0.5mM) 1.05 ± 0.023; (concentration: 1mM) 1.02 ± 0.032; (concentration: 2mM) 1.04 ± 0.052; (concentration: 4mM) 1.08 ± 0.075; (concentration: 6mM) 1.07 ± 0.082. Moreover, the NP40-soluble protein abundance runs as follows: (concentration: 8mM) 1.09 ± 0.065; (concentration: 10mM) 1.05 ± 0.039.

For the target BRI3BP (UniProt Q8WY22), the NP40-soluble protein abundance is, setting by setting: (concentration: 0.1mM) 0.974 ± 0.1; (concentration: 0.5mM) 0.937 ± 0.079; (concentration: 1mM) 0.94 ± 0.066; (concentration: 2mM) 1.07 ± 0.088; (concentration: 4mM) 1.03 ± 0.031; (concentration: 6mM) 1.07 ± 0.062. The NP40-soluble protein abundance is, setting by setting: (concentration: 8mM) 0.927 ± 0.099; (concentration: 10mM) 1.04 ± 0.03.

In the case of UniProt Q92581 and related entries, the NP40-soluble protein abundance (concentration: 0.1mM) is 1.01 ± 0.1; the NP40-soluble protein abundance (concentration: 0.5mM) was 1.02 ± 0.035; the NP40-soluble protein abundance (concentration: 1mM) was 0.915 ± 0.077; the NP40-soluble protein abundance (concentration: 2mM) is 0.899 ± 0.07; the NP40-soluble protein abundance (concentration: 4mM) was determined as 0.941 ± 0.074; the NP40-soluble protein abundance (concentration: 6mM) came to 0.923 ± 0.073. For the same target, the NP40-soluble protein abundance is 0.88 ± 0.055 (concentration: 8mM) and 0.942 ± 0.053 (concentration: 10mM).

Take UniProt Q96ES7: the NP40-soluble protein abundance came out at 1.21 ± 0.22 (concentration: 0.1mM); 1.12 ± 0.13 (concentration: 0.5mM); 1.25 ± 0.19 (concentration: 1mM); 1.14 ± 0.12 (concentration: 2mM); 1.26 ± 0.11 (concentration: 4mM); 1.17 ± 0.11 (concentration: 6mM). Further, the NP40-soluble protein abundance (concentration: 8mM) was determined as 1.38 ± 0.32 and the NP40-soluble protein abundance (concentration: 10mM) came out at 1.12 ± 0.096.

Consider PRCC (UniProt Q92733), for which the NP40-soluble protein abundance runs as follows: (concentration: 0.1mM) 0.958 ± 0.012; (concentration: 0.5mM) 0.947 ± 0.051; (concentration: 1mM) 1.05 ± 0.033; (concentration: 2mM) 0.992 ± 0.071; (concentration: 4mM) 0.953 ± 0.057; (concentration: 6mM) 0.939 ± 0.084. In addition, the NP40-soluble protein abundance by setting is: (concentration: 8mM) 0.948 ± 0.042; (concentration: 10mM) 0.938 ± 0.026.

With UniProt Q92734 and related entries, the NP40-soluble protein abundance (concentration: 0.1mM) came to 0.962 ± 0.023; the NP40-soluble protein abundance (concentration: 0.5mM) worked out at 0.954 ± 0.015; the NP40-soluble protein abundance (concentration: 1mM) amounted to 0.975 ± 0.026; the NP40-soluble protein abundance (concentration: 2mM) worked out at 0.961 ± 0.035; the NP40-soluble protein abundance (concentration: 4mM) was determined as 0.939 ± 0.037; the NP40-soluble protein abundance (concentration: 6mM) amounted to 0.952 ± 0.036. For the same target, the NP40-soluble protein abundance runs as follows: (concentration: 8mM) 0.954 ± 0.015; (concentration: 10mM) 0.987 ± 0.03.

NAT14 (UniProt Q8WUY8): the NP40-soluble protein abundance runs as follows: (concentration: 0.1mM) 0.993 ± 0.049; (concentration: 0.5mM) 1.049 ± 0.0069; (concentration: 1mM) 0.834 ± 0.088; (concentration: 2mM) 0.974 ± 0.069; (concentration: 4mM) 1.05 ± 0.017; (concentration: 6mM) 0.954 ± 0.025. Also, the NP40-soluble protein abundance was found to be 0.87411 ± 0.0008 (concentration: 8mM) and 0.9323 ± 0.0022 (concentration: 10mM).

Turning to UniProt Q96AE7 and related entries, the NP40-soluble protein abundance reads like this: (concentration: 0.1mM) 0.994 ± 0.053; (concentration: 0.5mM) 0.985 ± 0.084; (concentration: 1mM) 1.16 ± 0.067; (concentration: 2mM) 1.21 ± 0.056; (concentration: 4mM) 1 ± 0.095; (concentration: 6mM) 1.12 ± 0.089. Besides, the NP40-soluble protein abundance (concentration: 8mM) turned out to be 1.07 ± 0.037 and the NP40-soluble protein abundance (concentration: 10mM) turned out to be 1.04 ± 0.021.
